Structures can show the parent of a compound that is named as a salt.
Test: Microdialysis probe recovery and stability (dialysis and retrodialysis)
Details: perfusate normal saline with 30% ethanol, 1.5 μL/min
Experimental: Normal saline containing 30% ethanol was chosen as the perfusate for two drugs with opposing polarity, and the flow rate was 1.5 μL/min according to our previous study. Then, an in vitro RR% evaluation was performed via dialysis and retrodialysis. The in vivo stability study was performed using a retrodialysis method, which provided the evidence for the microdialysis method that was used for the in vivo pharmacokinetics study.

Row | SMILES | recovery rates (RR %)
1 | COc1ccc2cc3[n+](cc2c1OC)CCc1cc2c(cc1-3)OCO2 [BBH, berberine hydrochloride] | 29.7 ± 6.352%
2 | Cc1cc(O)c2c(c1)C(=O)c1cccc(O)c1C2=O [CHR, chrysophanol] | 51.42 ± 4.256%

Source: paper PMC6515668, “Liposomes for effective drug delivery to the ocular posterior chamber” (Journal of Nanobiotechnology, 2019)
